Record: PubChem BioAssay AID602196 (INSERM, 2012)
Here is a random part of about 23,000 deposited reagents. 455 of all reagents (2%) were called active. 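Active includes both protection and sensitisation; some change values fall well beyond the stated -50 to +50 range.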 Unmarked entries are inactive. Reagents against one gene are numbered here. Further read-outs or replicates are left out here. Not given: the amount of reagent.

Aim: 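Genes whose knock-down alters cisplatin killing of lung cancer cells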
System: human A549 lung cancer cells
Knock-down reagent: siRNA pair against human genes
Time to read-out: 48 h transfection before cisplatin; time from cisplatin to read-out not stated
Challenge: cisplatin at a dose killing half of control-siRNA cells; exact dose and duration not given
Measured: 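Cisplatin cell death as a shift from the 50% death seen with control siRNA; siRNAs toxic or growth-blocking alone scored 0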
Direction: two-siRNA summed score (-2 to +2): higher = both siRNAs protect from cisplatin killing; -2 means both sensitise; mean protection from cisplatin (shift in death) and protection from cisplatin (shift in death), siRNA C: higher = protection from cisplatin killing
Active means: 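siRNAs harmful alone (LDH or WST-1) get 0; others get +1 for less and -1 for more cisplatin killing; genes are active when the two siRNAs give the same sign, summing to ±2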
Meaning of the calls: active = both siRNAs shift cisplatin killing the same way; inactive = no consistent shift, or siRNA harmful alone

gene	reagent	two-siRNA summed score (-2 to +2)	mean protection from cisplatin (shift in death) (%)	protection from cisplatin (shift in death), siRNA C (%)
GATA3-AS1	1	0	19	6
DNAJC24	1	0	11.2	13.3
LPIN1	1	0	4.9	5.4
PRDM12	1	0	-9.8	-4.1
LOC440828	1	-1	8.6	-9.9
SHISA5	1	0	2.3	0.6
CDH17	1	0	1.2	-1.2
ZC3H6	1	0	8.4	10.8
VDAC3	1	0	0.3	1.6
LOC344620	1	-1	-4.9	6.6
EFL1P1	1	0	-1.2	-1.5
LOC440472	1	0	11.5	21.4
CGGBP1	1	1	21.7	12.1
SGPP1	1	0	-10.2	-3.1
MED14	1	0	-6.9	8.2
WNT5A	1	-1	-5.5	5
GJB6	1	0	1.7	-8
LOC441560	1	0	4.3	11.3
PCDHGA6	1	0	14.4	17.8
DTNB	1	1	18.7	19.4
PLBD1	1	0	-1	12.9
MYOT	1	1	12.9	13.2
UROD	1	0	-9.3	-2
GALNS	1	1	3.4	19.8
CFAP74	1	0	-5.8	-13.3
CFAP74	2	1	1	-15.4
ADAM21	1	0	0.4	7.1
SLC26A9	1	0	9.3	9.6
TST	1	0	3	-19.4
PIK3AP1	1	0	10.4	10.8
GRIP2	1	1	13.6	7.6
STK31	1	0	7.3	6.7
SPOCK1	1	1	14.5	14.5
HIVEP1	1	0	3.9	13.9
MZT2B	1	-1	-17.2	-31.1
LPXN	1	0	-2.6	-23.1
MPZL2	1	0	-4.2	1.2
LOC442009	1	0	21.3	5.9
GNRH1	1	0	-10.9	-8.9

Taken from above.
Under “mean protection from cisplatin (shift in death) (%)”, MZT2B has -17.2
For “mean protection from cisplatin (shift in death) (%)”, GJB6 is entered as 1.7
Under “mean protection from cisplatin (shift in death) (%)”, DNAJC24 reads 11.2
Value of HIVEP1 under “two-siRNA summed score (-2 to +2)”: 0
Result for MED14 under “two-siRNA summed score (-2 to +2)”: 0
Under “mean protection from cisplatin (shift in death) (%)”, UROD is entered as -9.3
